This test can be described thus: qHTS Assay for Lipid Storage Modulators in Drosophila S3 Cells.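 On cell number change: cells counted by Cell Tracker Red CMTPX staining in the red channel.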 As to conditions: BODIPY lipid droplet fluorescence, 18-24 h; for cell number change: measured here: cell count max response, cells fed with added oleic acid. In short, it runs like this: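 Drosophila S3 cells got compounds at several concentrations plus oleic acid (400 uM solution). Laser-scanning cytometry with 488 nm excitation read lipid droplets at 500-530 nm and cells at 575-640 nm. Percent activity was relative to 20 uM Triacsin C.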

Setting [1] is: measured here: lipid fluorescence (Fed channel) AC50, cells fed with added oleic acid.
Setting [2] is: measured here: cell number channel AC50, cells fed with added oleic acid.

This is one part of the list. Further columns of the screen follow, without active or inactive calls. Compounds called inactive in the main read-out are mostly missing here. The note in brackets gives the kind of curve behind each potency; many fits are weak.

For `COc1ccc(NS(=O)(=O)c2ccc3c(c2)NC(=O)CC(=O)N3)cc1OC`, the cell number change came to 19.3%.

Take `CCOC(=O)C1=C(C)NC(C)=C(C(=O)OCC)C1c1cn(-c2ccccc2)nc1-c1ccco1`: the cell number change is 22.5%. Moreover, under setting [1], the AC50 was 0.731 µM [rising, full curve].

As for `O=C(NCCc1ccccc1)c1ccc2[nH]c(=O)c(=O)[nH]c2c1`, the cell number change came out at 3.98%. For the same compound, the concentration at half-maximal activity (AC50) under setting [1] was 6.51 µM [rising, partial curve, poor fit].

`CCN(CC)c1ccc(NC(=O)COC(=O)Cc2ccsc2)cc1`: the cell number change is 24%.

As to `Cc1cn(C(=O)CN2C(=O)c3ccccc3C2=O)c(C)n1`, the cell number change is -0.944%.

As for `CCOC(=O)N1CCN(c2ccc(C(=O)CC)cc2F)CC1`, the cell number change was -13.9%.

For the compound `CN(C)CCCNc1cc(C(C)(C)C)nc2c(-c3ccccc3)cnn12`, the cell number change was -38.8%. Besides, under setting [2], the concentration at half-maximal activity (AC50) is 20.6 µM [falling, single point]. Under setting [1], the half-maximal activity concentration (AC50) was 29.1 µM [falling, single point].

As to `Cc1cccc(C)c1NC(=O)c1ccc(CN2CCc3ccccc3C2)cc1`, the cell number change is -11.3%. Also, the AC50 under setting [2] was 4.61 µM [rising, single point].

Take `N#C/C(=C\c1c(N2CCCCC2)nc2ccccn2c1=O)C(=O)NCc1ccco1`: the cell number change worked out at 83.3%. Under setting [2], the AC50 is 16.4 µM [rising, single point].

Turning to `O=C(Cn1cc(/C=N/O)c2ccccc21)N1CCOCC1`, the cell number change came out at 13.9%. Under setting [1], the AC50 is 0.13 µM [falling, full curve, poor fit].

Regarding `CC(C)(C)c1ccc(C(=O)NCc2nnc(SCC(=O)NC3CCCCC3)o2)cc1`, the cell number change was -28.7%.

Consider `CN1CCN(c2ccc(C(CC(N)=O)NC(=O)c3ccccc3)cc2[N+](=O)[O-])CC1` (centres undefined), for which the cell number change was -12.3%.

For `O=C(c1cc(-c2ccc(Cl)cc2)on1)N1CCN(c2ccc(F)cc2)CC1`, the AC50 under setting [1] was 29.1 µM [falling, single point].

As for `CCCCCCCNC(=O)c1cc(-c2ccncc2)nc2ccccc12`, the cell number change was 3.55%. The AC50 under setting [1] was 6.51 µM [rising, partial curve, poor fit].

With `CCC1(c2ccccc2)NC(=O)N(CC(=O)NCc2ccc(C)cc2)C1=O` (centres undefined), the cell number change stood at 40.1%. In addition, the half-maximal activity concentration (AC50) under setting [2] is 0.291 µM [rising, full curve]. For the same compound, under setting [1], the half-maximal activity concentration (AC50) is 29.1 µM [rising, single point].

Consider `Cc1ccc(OCc2cc(C(=O)N(C)CCc3ccccn3)no2)cn1`, for which the cell number change is -9.24%. The half-maximal activity concentration (AC50) under setting [1] is 1.64 µM [falling, single point].

For `COCCOC(=O)c1c(C)oc2ccc(NS(=O)(=O)c3ccccc3)cc12`, the cell number change came out at 5.14%. For the same compound, under setting [1], the AC50 was 1.64 µM [rising, partial curve].

Turning to `CCOC(=O)C1CCCN(C(=O)/C(=C/c2ccco2)NC(=O)c2ccccc2)C1` (centres undefined), the cell number change is -9.24%.

As to `COc1cccc(/C=N/NC(=O)CN(C2=NS(=O)(=O)c3ccccc32)c2ccccc2)c1`, the cell number change was -8.02%. Further, under setting [2], the AC50 was 0.0058 µM [falling, full curve, poor fit]. Also, the AC50 under setting [1] was 0.00517 µM [falling, full curve, poor fit].

`COc1ccc(N2CCN(C(=O)c3cc4c(-c5cccc(OC)c5)nn(C)c4s3)CC2)cc1`: the cell number change is -9.87%. Also, the AC50 under setting [1] is 0.411 µM [rising, single point].

Consider `C=CCSc1nc2[nH]ncc2c(=O)[nH]1`, for which the cell number change came out at 20.8%.

As to `CC1=CCC2C(=O)N(c3cccc(C(=O)N(C)C4CCCCC4)c3)C(=O)C2C1` (centres undefined), the cell number change was 2.44%. In addition, under setting [1], the concentration at half-maximal activity (AC50) is 1.3 µM [rising, full curve].

For the compound `CCOc1ccc(NS(=O)(=O)c2ccc(C(=O)NCC(C)(C)N3CCOCC3)cc2)cc1`, the cell number change is -1.99%. For the same compound, the AC50 under setting [1] is 29.1 µM [rising, single point].

On to `CN(CC(=O)Nc1ccccc1Cl)C1CCCCC1`, for which the cell number change was -33.6%. Moreover, the concentration at half-maximal activity (AC50) under setting [2] is 23.1 µM [falling, single point].

`CCOC(=O)c1ccc(NC(=O)Cn2nnc3ccccc32)cc1`: the cell number change was -22%.

Consider `COc1ccc(Cl)cc1C(=O)NCc1cn(C)nc1C`, for which, under setting [1], the half-maximal activity concentration (AC50) was 0.0517 µM [rising, full curve, poor fit].

For `Cc1ccccc1OCC(=O)OC(C(=O)c1ccccc1)c1ccccc1` (centres undefined), the cell number change is -23.1%. Further, under setting [1], the AC50 is 0.058 µM [falling, full curve, poor fit].

In the case of `Cc1[nH]c2ccc(-c3n[nH]c(=S)n3-c3ccc(Br)cc3)cc2c1C`, the cell number change is -28.4%. Moreover, the AC50 under setting [1] is 20.6 µM [falling, single point].

On to `O=C(Nc1cccc(C(F)(F)F)c1)c1cccc(NS(=O)(=O)c2ccc(O)c(C(=O)O)c2)c1`, for which the cell number change was 6.73%.

On to `Cc1cc(F)ccc1NCC(=O)Nc1ccccc1Br`, for which the cell number change is -33.7%. The AC50 under setting [2] is 32.6 µM [falling, single point]. The concentration at half-maximal activity (AC50) under setting [1] is 20.6 µM [falling, partial curve, poor fit].

As to `Cc1c(C2CC(=O)N(c3ccccc3)C2=O)[nH]n(-c2ccccc2)c1=O` (centres undefined), the cell number change is -8.37%. Also, under setting [1], the half-maximal activity concentration (AC50) was 29.1 µM [rising, single point].

As to `COC(=O)c1sccc1NN1C(=O)c2ccccc2C1=O`, the cell number change came out at 19.8%. The AC50 under setting [2] is 4.11 µM [falling, single point]. Further, the half-maximal activity concentration (AC50) under setting [1] was 3.66 µM [falling, single point].

Regarding `COCCCNC(=O)CSc1nc2c(sc(=S)n2-c2cc(Cl)ccc2OC)c(=O)[nH]1`, the cell number change was determined as 5.41%. Under setting [1], the AC50 was 29.1 µM [rising, single point].

Take `CCOc1ccc(Oc2cc(NC(=O)c3ccco3)cc([N+](=O)[O-])c2)cc1`: the cell number change was determined as 5.49%. Besides, the concentration at half-maximal activity (AC50) under setting [1] is 16.4 µM [falling, partial curve].

For `Cc1nc2ccc([N+](=O)[O-])cc2c(=O)n1Cc1ccccc1Br`, the cell number change was -16.3%. For the same compound, the AC50 under setting [1] is 29.1 µM [falling, single point].

`CCOC(=O)C1(S(=O)(=O)c2ccccc2)CCN(Cc2ccccc2)CC1`: the cell number change is -21.3%.

Consider `Cc1ccc(/C=N/NC(=O)c2cc(C)oc2C)o1`, for which the AC50 under setting [1] is 0.116 µM [falling, full curve, poor fit].

In the case of `Cc1c(-c2n[nH]c(=S)n2-c2ccc(Br)cc2)nnn1-c1ccc(Cl)cc1`, the cell number change is -50.7%. Moreover, under setting [2], the half-maximal activity concentration (AC50) was 20.6 µM [falling, single point]. Further, under setting [1], the AC50 was 20.6 µM [falling, single point].

With `Cc1ccc(S(=O)(=O)N2CCN=C2SC(C)c2ccccc2)cc1` (centres undefined), the cell number change was -6.36%.

With `Cc1ccc(S(=O)(=O)N2[C@@H](c3cccc(Cl)c3)C(C(=O)O)=CC[C@H]2c2cccs2)cc1`, the cell number change is -5.48%. In addition, under setting [1], the half-maximal activity concentration (AC50) was 0.13 µM [rising, full curve, poor fit].

Regarding `COc1ccc(S(=O)(=O)NNc2nc(C)cc(C)n2)cc1[N+](=O)[O-]`, the cell number change is -31.8%. In addition, the concentration at half-maximal activity (AC50) under setting [2] was 18.4 µM [falling, single point]. Moreover, the AC50 under setting [1] is 14.6 µM [falling, partial curve].

Regarding `COC(=O)c1[nH]c2cccc(OC)c2c1NC(=O)CN(C)CC1OCCO1`, the cell number change amounted to 33%. Moreover, the concentration at half-maximal activity (AC50) under setting [2] is 4.61 µM [rising, full curve, poor fit]. For the same compound, the half-maximal activity concentration (AC50) under setting [1] was 4.61 µM [rising, full curve].

In the case of `O=C(C[n+]1ccc(/C=N/O)cc1)NC(=O)Nc1ccccc1`, the cell number change is -26.9%. Besides, the AC50 under setting [1] was 1.03 µM [rising, partial curve].

With `Cc1nc(NC(=O)C2CC2)sc1C(=O)N(C)C`, the cell number change was -8.11%. Besides, the concentration at half-maximal activity (AC50) under setting [1] was 0.366 µM [rising, partial curve, poor fit].

In the case of `Cc1occc1-c1nnc(SCC(=O)Nc2nccs2)n1Cc1ccco1`, the cell number change was -2.11%.

Regarding `CCOC(=O)C1CCN(CC(O)COc2ccc(S(=O)(=O)N3CCCC3)cc2[N+](=O)[O-])CC1` (centres undefined), the cell number change came out at 52.3%. Also, under setting [2], the AC50 was 2.91 µM [rising, full curve].

Regarding `CC(=O)Nc1ccccc1C(=O)C(=O)Nc1ccc(C(=O)NCC2CCCO2)cc1` (centres undefined), the cell number change was -4.15%.

As for `Fc1ccc2nc(Nc3nc4cc5c(cc4s3)OCCO5)sc2c1`, the cell number change amounted to 62.2%. Also, the AC50 under setting [2] was 13 µM [rising, partial curve]. Also, the half-maximal activity concentration (AC50) under setting [1] is 9.2 µM [rising, partial curve].

For the compound `COC(=O)c1ccccc1NC(=O)NCc1ccccc1`, the cell number change worked out at 36.5%. Further, under setting [2], the half-maximal activity concentration (AC50) was 0.366 µM [rising, full curve].

Regarding `CCOC(=O)N1CCN(C(=O)Cn2nc(C)n3nc(-c4ccc(OC)cc4)cc3c2=O)CC1`, the cell number change was -10.8%. Also, under setting [1], the half-maximal activity concentration (AC50) is 7.31 µM [rising, single point].

Regarding `Cc1cc(C(=O)N2CCN(S(=O)(=O)c3ccccc3F)CC2)c(C)o1`, the AC50 under setting [1] was 0.146 µM [falling, single point].

In the case of `COc1ccc(S(=O)(=O)N(C(C)=O)c2ccc3oc(=O)sc3c2)cc1`, the cell number change turned out to be 1.39%. Besides, the AC50 under setting [1] is 1.84 µM [falling, partial curve, poor fit].

Turning to `C=CCN1c2ccccc2[C@]23C[C@@H](C(=O)OC)N(C(=O)C4CCC4)C2=NC(C(=O)OC)=C(C(=O)OC)[C@H]13`, the cell number change was found to be 8.65%. Moreover, the AC50 under setting [1] was 0.0411 µM [rising, full curve, poor fit].

As for `CCN(CC)S(=O)(=O)c1ccc(C(=O)OCCNC(=O)c2cccnc2)cc1`, the cell number change stood at 0.533%. Also, the AC50 under setting [1] is 0.326 µM [falling, full curve, poor fit].

`O=C1/C(=C\c2cc(Cl)c(O)c(Cl)c2)SC(=S)N1Cc1ccccc1`: the cell number change is -98.2%. The half-maximal activity concentration (AC50) under setting [2] is 1.84 µM [falling, full curve]. Besides, the AC50 under setting [1] was 0.326 µM [falling, full curve].

`CCCN1Cc2cccc(C(=O)N3CCN(c4cc(Cl)ccc4C)CC3)c2C1=O`: the cell number change is -77.8%. Under setting [2], the AC50 is 29.1 µM [falling, single point].

As for `O=C(CN1C2CCC1CC(NC(=O)Nc1ccccc1)C2)NCc1ccco1` (centres undefined), the cell number change is -0.523%. Also, the half-maximal activity concentration (AC50) under setting [1] is 4.11 µM [rising, partial curve].

Take `O=S(=O)(NCc1ccc2c(c1)OCO2)c1cccc(F)c1`: the cell number change is -4.91%.

For `CCC(CC)NC(=O)Cc1ccc(S(=O)(=O)N2CCOCC2)s1`, the cell number change was determined as 9.1%.

As for `CCNC(=O)NC(=O)CSc1cccc(C(F)(F)F)c1`, the cell number change was -13.2%. Moreover, the AC50 under setting [1] was 0.291 µM [rising, full curve, poor fit].

Turning to `Cc1ccccc1N1CCN(S(=O)(=O)c2ccc3ccccc3c2)CC1`, the cell number change was found to be 50.7%. For the same compound, the AC50 under setting [2] is 18.4 µM [rising, single point].

As to `CCOc1ccccc1N(CC(=O)Nc1ccc(S(=O)(=O)N2CCCC2)cc1)S(C)(=O)=O`, the cell number change is -43.6%. The AC50 under setting [2] was 9.2 µM [falling, partial curve, poor fit].

Source of the values: PubChem BioAssay AID2685 (National Center for Advancing Translational Sciences (NCATS), 2010).
